Laboratory results published in PubChem BioAssay AID758 (NMMLSC, 2007).
Out of some 190,000 compounds screened, about 110 (0.058%) were called active. This list was built around the results that the source calls inconclusive (neither active nor inactive); the mix of calls is not that of the screen.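 Rule for the calls: active = fluorescent GTP binding to Rab7 beads changed by at least 20 points from the 100% baseline, either direction, mostly lower; inconclusive = compound itself probably fluorescent, or too few beads counted; inactive = the rest.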

test system: Rab7 GTPase wild type (dog), Bodipy-FL-GTP binding; test: modulators of GTP binding to Rab7, primary screen, biochemical, wildtype, multiplex bead flow cytometry (AID 758); conditions: GST-Rab7 beads, fluorescent GTP binding, at 10 µM, actives lie on both sides, untreated = 100%, excess cold GTP = 0%;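 note: median green fluorescence of bound Bodipy-FL-GTP per Rab7 bead population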

Row | Compound | GTP binding activity (percent of control)
1 | O=c1cnnc(N/N=C/c2c[nH]c3ccccc23)[nH]1 | inconclusive: 92%
2 | CC1CC(C)(C)NC(=S)N1CC(=O)NCc1ccc(Cl)cc1 (centres undefined) | inconclusive: 98%
3 | COc1ccc(CNc2nc3ccccc3n2Cc2ccc(C)cc2)cc1OC | inactive: 115%
4 | O=C(Nc1cccc(-c2nc3ncccc3o2)c1)c1sc2ccccc2c1Cl | inconclusive: 88%
5 | Brc1ccc(CSc2nnc(-c3ccccn3)n2Cc2ccco2)cc1 | inconclusive: 98%
6 | O=P(O)(O)c1ccccc1OCCOCCOCCOCCOc1ccccc1P(=O)(O)O | inactive: 105%
7 | O=C(c1ccccc1Sc1ccccc1[N+](=O)[O-])N1CCCCC1 | inactive: 100%
8 | CCCCN(C(=O)NC(=O)Nc1nc2ccc(OC)cc2s1)S(C)(=O)=O | inconclusive: 86%
9 | COc1cccc(C(=O)Nc2cc3c(cc2C(C)=O)OCCO3)c1 | inactive: 99%
10 | CCOc1c(Cl)cc(/C=N/NC(N)=S)cc1OC | inactive: 103%
11 | COc1ccc(C(=O)Nc2cc(Cl)ccc2Cl)c(OC)n1 | inconclusive: 101%
12 | CCc1ccc(N2C(=O)CN(Cc3cccs3)C2=S)cc1 | inactive: 96%
13 | CS(=O)(=O)c1ccc(C(=O)OCC(=O)NC(=O)C2CCCCC2)cc1[N+](=O)[O-] | inactive: 100%
14 | CCN(Cc1ccccc1)S(=O)(=O)c1cc(C(=O)O)ccc1OC | inactive: 107%
15 | CCCSc1nc(O)c(C(c2ccc(OC)c(O)c2)c2c(O)nc(SCCC)n(C)c2=O)c(=O)n1C | inconclusive: 92%
16 | CC(C)(C)NC(=O)c1ccc2nsnc2c1 | inconclusive: 333%
17 | O=C1CN(C(=O)/C=C/c2cccc(Cl)c2)c2ccccc2N1 | inconclusive: 93%
18 | CN(C)c1ccc([C@@H]2[C@@H]([N+](=O)[O-])[C@H]3C=Cc4ccccc4N3[C@H]2C(=O)c2ccc(Cl)cc2)cc1 | inconclusive: 42%
19 | O=C(NCCOc1ccc(Cl)cc1)C1CC(=O)N(c2ccc(F)cc2)C1 (centres undefined) | inconclusive: 105%
20 | Cc1cc(NCCc2ccccc2F)n2ncnc2n1 | inconclusive: 99%
21 | Cc1ccc2nc(SCc3ccc([N+](=O)[O-])cc3)[nH]c2c1 | inconclusive: 99%
22 | O=C(CCNS(=O)(=O)c1ccc(Cl)cc1)NCc1ccccn1 | inconclusive: 103%
23 | Cc1ccc(CN2CC(C(=O)Nc3ccc4c(C)cc(=O)oc4c3)CC2=O)cc1 (centres undefined) | inconclusive: 94%
24 | CCC1CCCCN1C(=S)Nc1cccc(S(=O)(=O)N(C)C)c1 (centres undefined) | inactive: 96%

Row | Compound | GTP binding activity (percent of control)
25 | CCCC(=O)N1CCN(c2ccc(NC(=S)NC(=O)c3cccc(C)c3)cc2)CC1 | inconclusive: 104%
26 | O=C(NCCN1CCN(C(=O)c2cc3ccccc3oc2=O)CC1)c1cc2ccccc2oc1=O | inconclusive: 109%
27 | CCC(C)C(=O)Nc1ccc(OC)cc1OC (centres undefined) | inconclusive: 150%
28 | COc1ccc(-n2cc(-c3ccc(C)cc3)[n+]3c2SCC3)cc1 | inactive: 96%
29 | COc1cccc(CN(C)CC(=O)Nc2sc3c(c2C#N)CCC3)c1OC | inconclusive: 93%
30 | O=C(CN1C(=O)C(=O)N(C2CCCC2)C1=O)Nc1ccc(N2CCOCC2)cc1 | inactive: 96%
31 | Cn1c(-c2ccc(F)cc2)cnc1NCc1ccc(F)cc1 | inconclusive: 105%
32 | CCn1c(SCC(=O)NC2CCCc3ccccc32)nnc1-c1cccs1 (centres undefined) | inconclusive: 105%
33 | Fc1ccc(COc2ccc(/C=N/n3cnnc3)cc2)cc1 | inconclusive: 95%
34 | O=C(O)CCn1cc(/C=N/O)c(-c2cccc([N+](=O)[O-])c2)n1 | inactive: 105%
35 | c1ccc2c3c([nH]c2c1)C(C1CCCCC1)N(Cc1ncc[nH]1)CC3 (centres undefined) | inactive: 95%
36 | COc1ccc(S(=O)(=O)CC(O)CN2CCCC2=O)cc1 (centres undefined) | inconclusive: 108%
37 | COc1ccc(N2CCN(CC(=O)Nc3cccc(S(=O)(=O)N4CCOCC4)c3)CC2)cc1 | inconclusive: 97%
38 | Cc1nnc2ccc(-c3cccc(NC(=O)c4ccc(Br)o4)c3)nn12 | inactive: 91%
39 | O=C1COc2ccc(C(=O)COC(=O)CNC(=O)c3ccco3)cc2N1 | inactive: 105%
40 | COc1ccc2cc3cc(C(=O)NCCc4ccc(OC)c(OC)c4)oc3nc2c1 | inconclusive: 97%
41 | COC(=O)c1ccc(/C=N/Nc2nc(-c3ccc(Cl)cc3Cl)cs2)cc1 | active: 124% [activator]
42 | Cc1nn(C)c2nc(-c3cccs3)cc(C(F)(F)F)c12 | inconclusive: 95%
43 | COc1ccc([N+](=O)[O-])cc1N(CC(O)CN1CCCCC1)S(=O)(=O)c1ccc(C)cc1 (centres undefined) | inactive: 104%
44 | O=C(CSCc1c(F)cccc1Cl)NCCSCc1ccco1 | inconclusive: 95%
45 | CCCN1C(=O)/C(=C/C=C2\N(CC)c3ccccc3C2(C)C)SC1=S | inconclusive: 145%
46 | COc1ccc(O)c(-c2cc(-c3cccc(Br)c3)n[nH]2)c1 | inconclusive: 104%
47 | Cc1cc(Oc2ccc(=O)n(C)n2)nc(=S)[nH]1 | inconclusive: 92%
48 | COc1cc(OC)c(-c2c3cc(O)c(=O)cc-3oc3cc(O)c(O)cc23)cc1OC | inconclusive: 206%

Among those listed so far, these have a thiophene ring, fused or not.
Row | Compound | GTP binding activity (percent of control)
4 | O=C(Nc1cccc(-c2nc3ncccc3o2)c1)c1sc2ccccc2c1Cl | inconclusive: 88%
12 | CCc1ccc(N2C(=O)CN(Cc3cccs3)C2=S)cc1 | inactive: 96%
29 | COc1cccc(CN(C)CC(=O)Nc2sc3c(c2C#N)CCC3)c1OC | inconclusive: 93%
32 | CCn1c(SCC(=O)NC2CCCc3ccccc32)nnc1-c1cccs1 (centres undefined) | inconclusive: 105%
42 | Cc1nn(C)c2nc(-c3cccs3)cc(C(F)(F)F)c12 | inconclusive: 95%

(list continues)

Row | Compound | GTP binding activity (percent of control)
49 | COC(=O)c1ccccc1NC1CC(=O)N(c2c(C)cccc2C)C1=O (centres undefined) | inactive: 93%
50 | O=C(c1ccccc1)c1nnc(-c2ccncc2)o1 | inconclusive: 104%
51 | N=c1c2c(-c3ccccc3)c(-c3ccccc3)n(Cc3ccco3)c2ncn1Cc1ccco1 | inconclusive: 106%
52 | O=C(c1ccc2ncsc2c1)N1CCN(c2ccc(O)cc2)CC1 | inactive: 102%
53 | O=C(CNC(=O)c1cccs1)NCC(=O)OCc1ccc(Cl)cc1Cl | inconclusive: 96%
54 | Clc1ccc(SCCOCCN2CCCCC2)cc1 | inconclusive: 104%
55 | O=C(O)C1CC(=O)N(c2ccc(OCc3ccc(Cl)cc3Cl)cc2)C1 (centres undefined) | inconclusive: 89%
56 | COCc1cc(Sc2ccc(Cl)cc2)nc(-c2ccccc2)n1 | inconclusive: 91%
57 | COc1cc(C)c(CNc2cccc(C)c2)cc1C | inconclusive: 101%
58 | O=C(Nc1nc2ccccc2[nH]1)c1cc2ccccc2o1 | inconclusive: 95%
59 | COc1ccc(Cc2nnc(N/N=C/c3ccc(O)cc3O)[nH]c2=O)cc1OC | inconclusive: 88%
60 | O=C(N/N=C/c1ccc[nH]1)c1ccccc1OCc1ccccc1Cl | inconclusive: 91%
61 | CCOC(=O)c1cnc(SCC(=O)OC)nc1N | inconclusive: 100%
62 | CC(C)(C)NC(=O)COC(=O)c1cc(Cl)ccc1[N+](=O)[O-] | inactive: 102%
63 | CC1CCN(Cc2c(C(=O)O)nnn2-c2nonc2N)CC1 | inactive: 103%
64 | COc1cccc(-c2nc(CS(=O)CC(=O)NCCCOC(C)C)c(C)o2)c1 (centres undefined) | inconclusive: 98%
65 | Cc1ccc(Nc2nnc(SC/C(O)=C(\C#N)c3nc4ccccc4[nH]3)s2)c(C)c1 | inconclusive: 94%
66 | COC(=O)C1CC(c2ccc(Cl)cc2)=NO1 (centres undefined) | inactive: 100%
67 | COCCNC(=O)NC(=O)COC(=O)C1(c2ccc(Cl)cc2)CC1 | inconclusive: 93%
68 | O=C(COC(=O)c1cccc(C(=O)OCC(=O)NC2CC2)n1)NC1CC1 | inactive: 94%
69 | COc1cc([N+](=O)[O-])ccc1N=Nc1c(N)[nH]n(-c2ccccc2)c1=O | inactive: 87%
70 | CCCC/C(O)=C1\C(=O)CC(C)(C)CC1=Nc1ccc(N)cc1 | inactive: 102%
71 | CC(C)n1c(C(O)c2ccccc2)nc2ccccc21 (centres undefined) | inconclusive: 103%
72 | O=C(Nc1ccc(-c2ccc([N+](=O)[O-])cc2)cc1)c1ccccc1F | inconclusive: 97%

Row | Compound | GTP binding activity (percent of control)
73 | N#CCCCCN1c2cccc3cccc(c23)S1(=O)=O | inconclusive: 94%
74 | Cc1ccc(Oc2ncccc2/C=N/OCc2ccc(Cl)c(Cl)c2)cc1 | inconclusive: 90%
75 | O=[N+]([O-])c1ccc2ccn(C3OCC(O)C(O)C3O)c2c1 (centres undefined) | inactive: 107%
76 | CCCSc1nnc(CN2CCOCC2)n1C | inconclusive: 104%
77 | COc1ccccc1OCCn1cc(C(=O)O)c2ccccc21 | inactive: 109%
78 | O=C(NC1=NCCS1)c1ccccc1OCc1ccccc1Cl | inactive: 98%
79 | N=C1SCC(=O)N1c1ncc(Cc2ccc(F)cc2)s1 | inactive: 97%
80 | Cc1ccc(-c2ccc(/C=C3/NC(=O)NC3=O)o2)cc1[N+](=O)[O-] | inconclusive: 91%
81 | O=C(CC1Nc2ccccc2NC1=O)c1ccccc1 (centres undefined) | inconclusive: 118%
82 | CC(C)Cc1nn2c(=O)cc(O)nc2s1 | inconclusive: 101%
83 | CC1CC(=O)N(Cc2ccccc2)c2ccccc2N1C=O (centres undefined) | inconclusive: 106%
84 | COc1cccc(C2=CC(c3ccccc3)n3ncnc3N2)c1 (centres undefined) | inconclusive: 103%
85 | C[C@@H]1NC(=O)[C@H](CCC(=O)O)NC(=O)c2cc([N+](=O)[O-])cc(F)c2NCCC[C@@H](C(N)=O)NC1=O | inactive: 94%
86 | COc1ccc(/C=C/C(=O)N2CCN(C)CC2)cc1S(=O)(=O)N1CCCCC1 | inactive: 98%
87 | CC1CCCCC1NC(=O)/C=C/c1nc2ccccc2s1 (centres undefined) | inconclusive: 91%
88 | CSc1cccc(NC(=S)N2CCC(N(C)C3CCCC3)CC2)c1 | inactive: 104%
89 | Cc1onc(-c2c(Cl)cccc2Cl)c1C(N)=O | inconclusive: 107%
90 | CC1(C)Cc2c(sc3nc(-c4cc5ccccc5o4)n(N)c(=O)c23)CO1 | inconclusive: 94%
91 | c1ccc(-c2csc(-n3cccn3)n2)cc1 | inactive: 93%
92 | OC1(C#CCCN2CCCCC2)c2ccccc2-c2ccccc21 | inconclusive: 104%
93 | Oc1ccc(C2=Nn3c(nnc3-c3ccco3)SC2)cc1O | active: 70%
94 | CC(C)(C)Cc1nnc(NC(=O)Cc2cccs2)s1 | inactive: 99%
